Measured values published in US20160304970A1, “GENE BIOMARKER TO DIAGNOSE METASTIC LIVER CANCER AND METHODS FOR TARGETING THE SAME” (University of Southern California, priority 2015, published 2016).
These are yes or no findings as the source states them, for the method shown. Some results given as binding are weak or reduced against the parent protein; the word gives no strength.

Amino acid sequences for entries named in this document (tags omitted). Residues count along the entry.
UniProt P42227, residues 2-770: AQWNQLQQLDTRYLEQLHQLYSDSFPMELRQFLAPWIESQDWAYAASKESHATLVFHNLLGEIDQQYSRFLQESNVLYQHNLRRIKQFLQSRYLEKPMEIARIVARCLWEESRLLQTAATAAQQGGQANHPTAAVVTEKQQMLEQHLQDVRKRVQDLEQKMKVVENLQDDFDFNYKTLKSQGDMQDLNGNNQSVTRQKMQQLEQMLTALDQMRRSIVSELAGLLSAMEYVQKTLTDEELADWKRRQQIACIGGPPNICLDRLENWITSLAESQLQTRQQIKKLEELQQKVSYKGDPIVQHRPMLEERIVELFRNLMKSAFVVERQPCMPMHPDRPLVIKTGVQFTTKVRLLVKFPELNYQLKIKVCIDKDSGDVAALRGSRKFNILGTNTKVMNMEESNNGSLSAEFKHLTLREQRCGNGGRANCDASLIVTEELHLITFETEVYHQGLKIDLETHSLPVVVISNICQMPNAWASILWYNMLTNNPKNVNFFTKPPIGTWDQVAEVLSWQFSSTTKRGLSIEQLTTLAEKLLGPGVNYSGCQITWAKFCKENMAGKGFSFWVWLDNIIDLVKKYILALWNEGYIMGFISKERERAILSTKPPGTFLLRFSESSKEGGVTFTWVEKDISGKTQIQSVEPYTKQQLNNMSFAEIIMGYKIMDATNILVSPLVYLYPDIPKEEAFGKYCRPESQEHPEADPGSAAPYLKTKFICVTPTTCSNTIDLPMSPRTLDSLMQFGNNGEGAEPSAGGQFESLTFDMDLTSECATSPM

Assays:
[1] = target: pSTAT3 (mouse) (UniProt P42227); assay: sequential-ChIP analysis on the Twist1 promoter in TICs
[2] = target: pSTAT3 (mouse) (UniProt P42227); assay: summary of the sequential-ChIP result in TICs from NS5A Tg mice
[3] = target: pSTAT3 (mouse) (UniProt P42227); assay: sequential-ChIP-qPCR on the Twist1 promoter in TICs (FIG. 22E)
[4] = target: pSTAT3 (mouse) (UniProt P42227); assay: sequential-ChIP-qPCR analysis (FIG. 22E)

Measured: binding

B1: NANOG (protein, mouse, UniProt Q80Z64 1-305, looked up)
chain: MSVGLPGPHSLPSSEEASNSGNASSMPAVFHPENYSCLQGSATEMLCTEAASPRPSSEDLPLQGSPDSSTSPKQKLSSPEADKGPEEEENKVLARKQKMRTVFSQAQLCALKDRFQKQKYLSLQQMQELSSILNLSYKQVKTWFQNQRMKCKRWQKNQWLKTSNGLIQKGSAPVEYPSIHCSYPQGYLVNASGSLSMWGSQTWTNPTWSSQTWTNPTWNNQTWTNPTWSSQAWTAQSWNGQPWNAAPLHNFGEDFLQPYVQLQQNFSASDLEVNLEATRESHAHFSTPQALELFLNYSVTPPGEI
binds: all assays above
